No constants are given. Whether binding was seen depends on the method and setting. For some assays here: A result given as binding can be weak or reduced; the word gives no strength. Sequences can lack the tags named with a protein.

Assay [1] concerns the target T1, human RG9MTD1 fused to the GAL4 binding domain (human) (UniProt Q7L0Y3).
T1 sequence: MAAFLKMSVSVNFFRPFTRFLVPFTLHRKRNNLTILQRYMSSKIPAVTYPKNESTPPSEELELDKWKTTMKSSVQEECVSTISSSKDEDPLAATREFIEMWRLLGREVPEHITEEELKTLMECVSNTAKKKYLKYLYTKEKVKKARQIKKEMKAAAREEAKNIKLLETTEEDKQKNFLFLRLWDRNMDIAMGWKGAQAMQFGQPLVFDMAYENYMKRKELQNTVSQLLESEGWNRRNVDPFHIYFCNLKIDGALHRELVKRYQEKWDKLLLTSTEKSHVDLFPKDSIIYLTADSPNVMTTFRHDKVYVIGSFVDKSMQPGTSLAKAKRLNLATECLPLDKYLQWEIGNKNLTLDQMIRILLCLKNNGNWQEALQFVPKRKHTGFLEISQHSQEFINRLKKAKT
Kind of assay: two-hybrid; GAL4 system in Y2H Gold; cotransformants replica plated on LTHA−, LTH−Ar+, LT−+X-α-gal and LTH− with 0-20 mM 3-AT, 30 °C, growth scored + to +++.

The target in assay [2] is T2, human CMTR1 fused to the GAL4 binding domain (human) (UniProt Q8N1G2).
T2 sequence: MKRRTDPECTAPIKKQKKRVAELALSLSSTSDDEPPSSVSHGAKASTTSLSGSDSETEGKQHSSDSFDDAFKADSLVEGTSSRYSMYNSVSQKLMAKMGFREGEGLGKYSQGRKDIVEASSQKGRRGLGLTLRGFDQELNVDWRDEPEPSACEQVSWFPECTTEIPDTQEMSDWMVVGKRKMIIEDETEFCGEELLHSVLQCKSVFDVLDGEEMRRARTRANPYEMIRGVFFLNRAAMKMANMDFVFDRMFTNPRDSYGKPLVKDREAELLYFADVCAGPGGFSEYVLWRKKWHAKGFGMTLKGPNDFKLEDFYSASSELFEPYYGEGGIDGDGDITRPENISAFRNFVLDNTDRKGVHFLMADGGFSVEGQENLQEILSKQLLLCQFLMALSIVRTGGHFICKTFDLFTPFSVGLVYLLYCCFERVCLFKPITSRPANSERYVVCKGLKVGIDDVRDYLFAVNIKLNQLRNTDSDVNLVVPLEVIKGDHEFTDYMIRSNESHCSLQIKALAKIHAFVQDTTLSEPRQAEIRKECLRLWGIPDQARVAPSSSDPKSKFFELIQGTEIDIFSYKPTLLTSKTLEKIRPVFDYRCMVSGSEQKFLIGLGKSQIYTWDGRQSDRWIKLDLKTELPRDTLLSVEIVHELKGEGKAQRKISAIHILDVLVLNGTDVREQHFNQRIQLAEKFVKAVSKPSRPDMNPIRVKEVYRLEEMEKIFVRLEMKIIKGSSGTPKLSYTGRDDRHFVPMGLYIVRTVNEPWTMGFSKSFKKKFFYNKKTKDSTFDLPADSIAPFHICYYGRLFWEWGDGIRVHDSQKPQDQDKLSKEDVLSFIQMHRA
Described as above.

Assay [3] deals with T3, human CMTR2 fused to the GAL4 binding domain (human) (UniProt Q8IYT2).
T3 sequence: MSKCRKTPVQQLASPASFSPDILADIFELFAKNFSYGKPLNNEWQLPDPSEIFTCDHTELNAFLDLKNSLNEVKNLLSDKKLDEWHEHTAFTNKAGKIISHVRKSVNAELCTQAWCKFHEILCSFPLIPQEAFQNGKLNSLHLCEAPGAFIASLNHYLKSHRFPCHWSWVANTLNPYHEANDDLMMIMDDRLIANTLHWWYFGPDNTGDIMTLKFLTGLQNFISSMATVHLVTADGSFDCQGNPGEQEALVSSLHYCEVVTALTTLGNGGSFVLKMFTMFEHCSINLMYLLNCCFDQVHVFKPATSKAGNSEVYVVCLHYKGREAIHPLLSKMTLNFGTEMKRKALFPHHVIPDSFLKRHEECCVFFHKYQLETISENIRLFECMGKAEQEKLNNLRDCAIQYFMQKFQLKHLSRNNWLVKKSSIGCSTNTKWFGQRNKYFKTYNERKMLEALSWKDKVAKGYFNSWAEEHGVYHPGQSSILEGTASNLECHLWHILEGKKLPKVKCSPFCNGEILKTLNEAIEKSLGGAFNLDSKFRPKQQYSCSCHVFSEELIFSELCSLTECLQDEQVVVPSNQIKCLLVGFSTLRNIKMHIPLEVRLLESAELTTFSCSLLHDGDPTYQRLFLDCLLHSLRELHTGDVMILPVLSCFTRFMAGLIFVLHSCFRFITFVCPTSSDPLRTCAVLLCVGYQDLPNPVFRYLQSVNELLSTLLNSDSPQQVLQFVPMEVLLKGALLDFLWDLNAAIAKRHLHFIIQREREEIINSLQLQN
The assay is described as above.

Assay [4] concerns the target D7 ORF3 deletion (63-123aa) fused to the GAL4 binding domain (Hepatitis E virus genotype 1, SAR 55 strain). Kind of assay: two-hybrid; GAL4 system in Y2H Gold; quantitative liquid α-galactosidase assay (MEL1 reporter) of cotransformants, triplicates.
For assay [5], the target named is D6 ORF3 deletion (33-123aa) fused to the GAL4 binding domain (Hepatitis E virus genotype 1, SAR 55 strain). The assay is described as above.
Assay [6] deals with D1 ORF3 deletion fused to the GAL4 binding domain (Hepatitis E virus genotype 1, SAR 55 strain). The description is as above.
Assay [7] deals with D3 ORF3 deletion fused to the GAL4 binding domain (Hepatitis E virus genotype 1, SAR 55 strain). Described as above.
The target of assay [8] is D4 ORF3 deletion fused to the GAL4 binding domain (Hepatitis E virus genotype 1, SAR 55 strain). The assay is described as above.
For assay [9], the target named is D2 ORF3 deletion fused to the GAL4 binding domain (Hepatitis E virus genotype 1, SAR 55 strain). The assay is described as above.
Assay [10] deals with D5 ORF3 deletion fused to the GAL4 binding domain (Hepatitis E virus genotype 1, SAR 55 strain). Described as above.
In assay [11] the target is D7 ORF3 deletion (63-123aa) fused to the GAL4 binding domain (Hepatitis E virus genotype 1, SAR 55 strain). The experiment in a line: two-hybrid; GAL4 system in Y2H Gold; cotransformants replica plated on LTHA−, LTH−Ar+, LT−+X-α-gal and LTH− with 0-20 mM 3-AT, 30 °C, growth scored + to +++.
The target of assay [12] is D6 ORF3 deletion (33-123aa) fused to the GAL4 binding domain (Hepatitis E virus genotype 1, SAR 55 strain). Described as above.
Assay [13] deals with D1 ORF3 deletion fused to the GAL4 binding domain (Hepatitis E virus genotype 1, SAR 55 strain). The description is as above.
For assay [14], the target named is D3 ORF3 deletion fused to the GAL4 binding domain (Hepatitis E virus genotype 1, SAR 55 strain). Described as above.
Assay [15] addresses D4 ORF3 deletion fused to the GAL4 binding domain (Hepatitis E virus genotype 1, SAR 55 strain). The description is as above.
Assay [16] deals with D2 ORF3 deletion fused to the GAL4 binding domain (Hepatitis E virus genotype 1, SAR 55 strain). The assay is described as above.
The target of assay [17] is D5 ORF3 deletion fused to the GAL4 binding domain (Hepatitis E virus genotype 1, SAR 55 strain). The assay is described as above.

“human PARP14 fused to the GAL4 activation domain”: the binding result in assay [1], in [2] and in assay [3] was “no binding” each time.

Consider “human MacroH2A1.1 fused to the GAL4 activation domain”, for which the binding result in assay [1], in assay [2] and in assay [3] was “no binding” throughout.

B1: HEV X-domain (macro domain) fused to the GAL4 activation domain (domain or fragment, UniProt P33424 775-921)
chain: ARHRRLLFTYPDGSKVFAGSLFESTCTWLVNASNVDHRPGGGLCHAFYQRYPASFDAASFVMRDGAAAYTLTPRPIIHAVAPDYRLEHNPKRLEAAYRETCSRLGTAAYPLLGTGIYQVPIGPSFDAWERNHRPGDELYLPELAARW
With B1, the binding entry in assay [4] was “binds”; in assay [5] it was “binds”; in [6] it was “binds weakly”; in [7] it was “binds weakly”; in assay [8] it was “binds weakly”; in assay [9], “binds weakly”. Further, the binding entry was “no binding” in assay [10]; “binds” in [11]; “binds” in [12]; “binds weakly” in assay [13]; “binds weakly” in [14]; “binds weakly” in assay [15]. In addition, the binding entry is on record as “binds weakly” in [16] and “no binding” in assay [17].

(Values after paper PMC4844956.)
